Reference: patent US10799499B2, “Combinatorial therapies of neurological disorders” (PHARNEXT, priority 2016, dated 2020)

System: primary cortical neuron cells
Test: Toxicity of human Aβ1-42 peptide on primary cortical neuron cells (MAP2 antibody labelling)
Type: cell-based, rat
Details: combinations versus drugs used alone at the same doses
Experimental: Effect on the Toxicity of Human Aβ1-42 Peptide on Primary Cortical Neuron Cells.
Culture of Primary Cortical Neurons
Rat cortical neurons are cultured as described by Singer et al.. Briefly pregnant female rats of 15 days gestation were killed by cervical dislocation (Rats Wistar) and the foetuses were removed from the uterus. The cortex was removed and placed in ice-cold medium of Leibovitz (L15) containing 2% of Penicillin 10.000 U/ml and Streptomycin 10 mg/ml and 1% of bovine serum albumin (BSA). Cortices were dissociated by trypsin for 20 min at 37° C. (0.05%). The reaction was stopped by the addition of Dulbecco's modified Eagle's medium (DMEM) containing DNase 1 grade II and 10% of fetal calf serum (FCS). Cells were then mechanically dissociated by 3 serial passages through a 10 ml pipette and centrifuged at 515×g for […] at +4° C. The supernatant was discarded and the pellet of cells was re-suspended in a defined culture medium consisting of Neurobasal supplemented with B27 (2%), L-glutamine (0.2 mM), 2% of PS solution and 10 ng/ml of BDNF. Viable cells are counted in a Neubauer cytometer using the trypan blue exclusion test. […]
Data are expressed in percentage of control conditions (no intoxication, no amyloid=100%) in order to express the amyloid injury. All values are expressed as mean+/−SEM (s.e.mean) of the 3 cultures (n=6 wells per condition). […]

With `COc1cc2c(cc1OC)C(=O)C(CC1CCN(Cc3ccccc3)CC1)C2` (stereo not shown) [donepezil] the “protective effect on neuronal cells against Aβ1-42 toxicity” value was “no or a marginal protective effect”.
